Measurements published in article PMC5828088.
No constants are given. Whether binding was seen depends on the method and setting. In cells and extracts the contact can be indirect. Some results given as binding are weak or reduced against the parent protein; the word gives no strength.

By UniProt entry, the sequences of proteins in these tests, tags left out.
UniProt P67775: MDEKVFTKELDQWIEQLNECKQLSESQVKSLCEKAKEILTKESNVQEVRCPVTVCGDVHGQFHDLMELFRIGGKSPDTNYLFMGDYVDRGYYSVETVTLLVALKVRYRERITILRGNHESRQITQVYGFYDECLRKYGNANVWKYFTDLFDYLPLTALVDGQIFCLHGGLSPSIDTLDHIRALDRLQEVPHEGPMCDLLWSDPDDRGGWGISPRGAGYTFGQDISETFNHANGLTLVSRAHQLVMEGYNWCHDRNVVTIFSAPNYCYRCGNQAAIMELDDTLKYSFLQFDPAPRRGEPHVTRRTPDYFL

Molecular target: protein phosphatase 2 catalytic subunit alpha (PPP2CA) (human (endogenous in MDA-MB-231 and MCF-7)) (UniProt P67775)
Assay: co-IP; anti-PPP2CA antibody conjugated protein G agarose beads on MDA-MB-231 and MCF-7 cells; Western blotting; normal IgG as control

binding: binds
B1: Protein kinase C ζ (PKCζ) (enzyme, UniProt Q05513 1-592)
chain: MPSRTGPKMEGSGGRVRLKAHYGGDIFITSVDAATTFEELCEEVRDMCRLHQQHPLTLKWVDSEGDPCTVSSQMELEEAFRLARQCRDEGLIIHVFPSTPEQPGLPCPGEDKSIYRRGARRWRKLYRANGHLFQAKRFNRRAYCGQCSERIWGLARQGYRCINCKLLVHKRCHGLVPLTCRKHMDSVMPSQEPPVDDKNEDADLPSEETDGIAYISSSRKHDSIKDDSEDLKPVIDGMDGIKISQGLGLQDFDLIRVIGRGSYAKVLLVRLKKNDQIYAMKVVKKELVHDDEDIDWVQTEKHVFEQASSNPFLVGLHSCFQTTSRLFLVIEYVNGGDLMFHMQRQRKLPEEHARFYAAEICIALNFLHERGIIYRDLKLDNVLLDADGHIKLTDYGMCKEGLGPGDTTSTFCGTPNYIAPEILRGEEYGFSVDWWALGVLMFEMMAGRSPFDIITDNPDMNTEDYLFQVILEKPIRIPRFLSVKASHVLKGFLNKDPKERLGCRPQTGFSDIKSHAFFRSIDWDLLEKKQALPPFQPQITDDYGLDNFDTQFTSEPVQLTPDDEDAIKRIDQSEFEGFEYINPLLLSTEESV
